Values of other authors in patent publication US9872894B2, “Immunogenic polypeptide cocktail for the treatment of medullary thyroid carcinoma” (priority 2016, dated 2018).
At least one compound was matched to its structure with a doubt left.

Tested on: Medullary Thyroid Carcinoma
Conditions: for overall survival / progression-free survival: Phase III clinical trials

COc1cc2c(Nc3ccc(Br)cc3F)ncnc2cc1OCC1CCN(C)CC1 [vandetanib]
overall survival: failed to significantly extend overall survival | progression-free survival: improved progression-free survival

COc1cc2nccc(Oc3ccc(NC(=O)C4(C(=O)Nc5ccc(F)cc5)CC4)cc3)c2cc1OC [cabozantinib]
overall survival: failed to significantly extend overall survival | progression-free survival: improved progression-free survival | median survival (patients lacking RET mutations): reduced median survival by several months
